Source: the supplement of paper PMC12067093, “Discovery and optimisation of a covalent ligand for TRIM25 and its application to targeted protein ubiquitination” (Chemical Science, 2025)
The list shows a part of the results.

Sequences of proteins named here, by UniProt entry; tags and fusion partners are left off. A change or cut given only in a name is not applied to a line headed by its entry.
UniProt P21266: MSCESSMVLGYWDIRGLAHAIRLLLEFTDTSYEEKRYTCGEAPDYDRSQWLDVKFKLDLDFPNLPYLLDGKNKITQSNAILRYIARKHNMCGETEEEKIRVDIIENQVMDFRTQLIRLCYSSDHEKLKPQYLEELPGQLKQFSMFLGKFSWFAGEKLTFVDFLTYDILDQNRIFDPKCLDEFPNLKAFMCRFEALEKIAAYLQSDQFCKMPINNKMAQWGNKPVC
UniProt Q969Y2: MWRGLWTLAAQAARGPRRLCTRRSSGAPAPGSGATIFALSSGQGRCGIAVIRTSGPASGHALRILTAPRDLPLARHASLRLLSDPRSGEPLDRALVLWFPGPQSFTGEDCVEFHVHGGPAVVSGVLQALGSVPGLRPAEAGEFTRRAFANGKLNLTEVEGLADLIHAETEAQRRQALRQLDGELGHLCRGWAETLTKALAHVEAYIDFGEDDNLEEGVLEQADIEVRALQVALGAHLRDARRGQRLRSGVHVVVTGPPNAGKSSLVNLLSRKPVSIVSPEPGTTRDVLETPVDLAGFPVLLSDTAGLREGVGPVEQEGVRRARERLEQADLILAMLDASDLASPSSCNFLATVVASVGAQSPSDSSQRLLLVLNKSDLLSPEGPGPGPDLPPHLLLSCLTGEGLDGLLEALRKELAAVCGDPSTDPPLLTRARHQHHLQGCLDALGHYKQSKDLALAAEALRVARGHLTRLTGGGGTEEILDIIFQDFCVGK
UniProt O95479: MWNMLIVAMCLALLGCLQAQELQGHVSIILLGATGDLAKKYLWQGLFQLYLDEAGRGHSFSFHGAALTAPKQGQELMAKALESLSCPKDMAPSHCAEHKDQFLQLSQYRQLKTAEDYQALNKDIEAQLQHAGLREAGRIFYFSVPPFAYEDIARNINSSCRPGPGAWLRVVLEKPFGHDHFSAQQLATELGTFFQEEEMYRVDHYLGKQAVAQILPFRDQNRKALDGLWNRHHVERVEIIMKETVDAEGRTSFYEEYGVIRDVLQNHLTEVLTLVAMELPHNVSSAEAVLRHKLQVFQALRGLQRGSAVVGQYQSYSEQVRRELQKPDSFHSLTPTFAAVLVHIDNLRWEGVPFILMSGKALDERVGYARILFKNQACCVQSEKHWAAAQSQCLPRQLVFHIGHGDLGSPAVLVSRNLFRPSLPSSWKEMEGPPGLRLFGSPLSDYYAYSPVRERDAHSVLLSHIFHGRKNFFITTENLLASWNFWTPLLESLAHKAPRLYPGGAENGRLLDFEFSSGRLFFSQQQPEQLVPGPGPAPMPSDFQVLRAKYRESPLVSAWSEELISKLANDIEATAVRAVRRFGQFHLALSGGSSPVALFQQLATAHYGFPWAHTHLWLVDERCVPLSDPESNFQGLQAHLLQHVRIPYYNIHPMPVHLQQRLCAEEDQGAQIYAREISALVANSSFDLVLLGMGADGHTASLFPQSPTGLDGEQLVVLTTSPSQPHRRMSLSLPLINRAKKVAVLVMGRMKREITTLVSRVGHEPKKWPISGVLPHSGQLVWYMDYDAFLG
UniProt P78347: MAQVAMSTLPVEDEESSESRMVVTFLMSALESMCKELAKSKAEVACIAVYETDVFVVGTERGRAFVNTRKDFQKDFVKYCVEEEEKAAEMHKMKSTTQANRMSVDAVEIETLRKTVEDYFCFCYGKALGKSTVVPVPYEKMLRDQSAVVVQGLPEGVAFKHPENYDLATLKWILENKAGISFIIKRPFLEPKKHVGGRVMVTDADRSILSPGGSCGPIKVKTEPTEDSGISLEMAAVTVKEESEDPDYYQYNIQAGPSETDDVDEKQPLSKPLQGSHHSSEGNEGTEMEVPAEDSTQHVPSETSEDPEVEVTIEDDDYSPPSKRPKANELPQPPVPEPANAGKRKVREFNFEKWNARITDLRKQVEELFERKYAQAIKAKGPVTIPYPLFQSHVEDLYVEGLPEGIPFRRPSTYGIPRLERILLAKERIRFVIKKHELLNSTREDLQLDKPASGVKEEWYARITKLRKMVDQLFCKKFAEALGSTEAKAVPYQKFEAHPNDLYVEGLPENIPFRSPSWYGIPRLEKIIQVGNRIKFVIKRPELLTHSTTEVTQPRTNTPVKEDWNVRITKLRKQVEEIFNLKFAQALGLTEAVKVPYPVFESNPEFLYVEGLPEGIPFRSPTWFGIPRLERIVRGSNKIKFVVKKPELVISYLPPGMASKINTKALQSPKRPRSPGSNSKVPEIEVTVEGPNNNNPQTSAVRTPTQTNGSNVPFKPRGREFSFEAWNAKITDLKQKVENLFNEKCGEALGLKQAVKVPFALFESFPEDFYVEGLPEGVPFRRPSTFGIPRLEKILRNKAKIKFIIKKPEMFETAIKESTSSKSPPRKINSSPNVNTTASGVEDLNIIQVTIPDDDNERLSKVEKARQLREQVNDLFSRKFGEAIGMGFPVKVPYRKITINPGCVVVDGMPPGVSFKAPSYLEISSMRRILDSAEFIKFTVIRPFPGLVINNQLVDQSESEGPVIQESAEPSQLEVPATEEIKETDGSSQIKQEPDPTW
UniProt Q16774: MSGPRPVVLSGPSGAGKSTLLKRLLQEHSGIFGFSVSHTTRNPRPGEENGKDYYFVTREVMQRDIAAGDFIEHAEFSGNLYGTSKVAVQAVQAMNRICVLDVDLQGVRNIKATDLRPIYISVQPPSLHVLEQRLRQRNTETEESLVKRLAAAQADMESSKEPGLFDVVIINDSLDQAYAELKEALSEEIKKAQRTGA
UniProt P08236: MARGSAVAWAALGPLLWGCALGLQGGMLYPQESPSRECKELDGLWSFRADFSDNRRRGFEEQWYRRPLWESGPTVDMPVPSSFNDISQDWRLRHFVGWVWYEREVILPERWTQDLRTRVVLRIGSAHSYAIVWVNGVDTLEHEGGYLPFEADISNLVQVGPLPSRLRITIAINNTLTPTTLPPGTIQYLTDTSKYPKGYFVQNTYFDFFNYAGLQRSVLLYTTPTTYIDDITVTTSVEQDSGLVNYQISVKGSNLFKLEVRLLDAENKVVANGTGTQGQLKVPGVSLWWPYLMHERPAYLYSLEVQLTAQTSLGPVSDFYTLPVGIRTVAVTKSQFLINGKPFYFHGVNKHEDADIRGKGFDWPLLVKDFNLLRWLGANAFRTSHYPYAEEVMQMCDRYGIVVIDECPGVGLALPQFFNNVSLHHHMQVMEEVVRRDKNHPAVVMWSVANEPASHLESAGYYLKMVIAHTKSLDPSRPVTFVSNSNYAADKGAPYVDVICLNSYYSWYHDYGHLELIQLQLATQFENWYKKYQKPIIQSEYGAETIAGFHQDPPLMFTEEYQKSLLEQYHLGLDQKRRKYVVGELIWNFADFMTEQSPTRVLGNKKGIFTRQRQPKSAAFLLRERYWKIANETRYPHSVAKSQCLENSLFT
UniProt P00390: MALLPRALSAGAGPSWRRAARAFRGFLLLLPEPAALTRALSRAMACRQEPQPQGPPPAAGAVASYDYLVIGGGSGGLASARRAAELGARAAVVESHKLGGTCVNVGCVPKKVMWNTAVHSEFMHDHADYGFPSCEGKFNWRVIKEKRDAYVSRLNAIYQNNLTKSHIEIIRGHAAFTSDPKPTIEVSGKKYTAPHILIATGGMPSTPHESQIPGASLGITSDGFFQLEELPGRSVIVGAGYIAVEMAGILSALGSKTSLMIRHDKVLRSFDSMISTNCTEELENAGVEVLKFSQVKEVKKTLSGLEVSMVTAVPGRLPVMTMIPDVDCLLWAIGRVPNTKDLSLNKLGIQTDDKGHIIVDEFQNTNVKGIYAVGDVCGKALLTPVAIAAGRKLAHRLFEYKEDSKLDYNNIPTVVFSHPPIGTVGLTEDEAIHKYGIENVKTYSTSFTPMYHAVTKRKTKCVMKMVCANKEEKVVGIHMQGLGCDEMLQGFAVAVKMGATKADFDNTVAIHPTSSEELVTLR
UniProt Q9BQ67, whole entry, looked up: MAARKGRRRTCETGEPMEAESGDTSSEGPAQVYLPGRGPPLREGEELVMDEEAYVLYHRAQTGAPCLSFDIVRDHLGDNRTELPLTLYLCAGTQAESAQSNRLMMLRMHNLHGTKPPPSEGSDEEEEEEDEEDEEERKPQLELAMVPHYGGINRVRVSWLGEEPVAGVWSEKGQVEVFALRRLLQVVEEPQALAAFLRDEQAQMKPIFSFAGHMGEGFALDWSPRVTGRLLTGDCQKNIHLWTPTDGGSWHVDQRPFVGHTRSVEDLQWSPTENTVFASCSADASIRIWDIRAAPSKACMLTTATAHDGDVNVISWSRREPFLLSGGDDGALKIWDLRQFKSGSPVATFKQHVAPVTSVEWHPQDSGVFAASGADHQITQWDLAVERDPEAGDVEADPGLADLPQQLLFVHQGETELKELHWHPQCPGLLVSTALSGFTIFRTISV
UniProt P25098: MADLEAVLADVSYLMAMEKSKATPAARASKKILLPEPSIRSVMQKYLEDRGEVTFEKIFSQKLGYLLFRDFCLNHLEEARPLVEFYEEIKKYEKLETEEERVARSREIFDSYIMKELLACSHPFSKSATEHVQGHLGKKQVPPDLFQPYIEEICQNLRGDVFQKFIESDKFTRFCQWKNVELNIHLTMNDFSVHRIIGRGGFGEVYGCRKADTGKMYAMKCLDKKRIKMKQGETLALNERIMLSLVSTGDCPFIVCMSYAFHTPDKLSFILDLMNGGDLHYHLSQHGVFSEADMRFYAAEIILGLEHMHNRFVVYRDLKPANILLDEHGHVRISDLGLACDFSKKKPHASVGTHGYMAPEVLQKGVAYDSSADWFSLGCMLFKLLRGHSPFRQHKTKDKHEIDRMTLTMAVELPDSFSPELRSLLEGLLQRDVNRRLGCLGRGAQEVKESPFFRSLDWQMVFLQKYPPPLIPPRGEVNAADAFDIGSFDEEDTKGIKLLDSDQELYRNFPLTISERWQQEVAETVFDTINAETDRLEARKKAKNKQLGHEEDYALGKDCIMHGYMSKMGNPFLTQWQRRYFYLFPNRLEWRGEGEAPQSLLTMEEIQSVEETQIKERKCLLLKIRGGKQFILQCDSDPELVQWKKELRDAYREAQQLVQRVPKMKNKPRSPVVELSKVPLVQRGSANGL
UniProt O94927: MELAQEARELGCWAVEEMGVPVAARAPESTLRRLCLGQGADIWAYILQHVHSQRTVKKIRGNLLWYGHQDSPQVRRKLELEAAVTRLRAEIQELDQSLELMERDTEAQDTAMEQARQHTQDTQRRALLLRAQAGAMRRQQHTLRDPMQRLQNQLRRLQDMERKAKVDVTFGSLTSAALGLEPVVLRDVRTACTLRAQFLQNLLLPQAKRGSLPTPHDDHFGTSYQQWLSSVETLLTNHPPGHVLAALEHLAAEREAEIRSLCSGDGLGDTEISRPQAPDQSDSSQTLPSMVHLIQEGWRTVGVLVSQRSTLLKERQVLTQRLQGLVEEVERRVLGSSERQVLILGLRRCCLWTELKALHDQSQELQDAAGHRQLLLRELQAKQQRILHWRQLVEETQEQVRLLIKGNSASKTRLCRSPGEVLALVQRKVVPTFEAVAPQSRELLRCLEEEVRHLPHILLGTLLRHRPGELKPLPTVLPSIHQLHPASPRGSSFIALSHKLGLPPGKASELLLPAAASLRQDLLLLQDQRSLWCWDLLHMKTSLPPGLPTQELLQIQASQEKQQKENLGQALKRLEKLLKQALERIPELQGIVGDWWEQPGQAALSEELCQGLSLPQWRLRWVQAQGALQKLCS
UniProt Q9Y5Q8: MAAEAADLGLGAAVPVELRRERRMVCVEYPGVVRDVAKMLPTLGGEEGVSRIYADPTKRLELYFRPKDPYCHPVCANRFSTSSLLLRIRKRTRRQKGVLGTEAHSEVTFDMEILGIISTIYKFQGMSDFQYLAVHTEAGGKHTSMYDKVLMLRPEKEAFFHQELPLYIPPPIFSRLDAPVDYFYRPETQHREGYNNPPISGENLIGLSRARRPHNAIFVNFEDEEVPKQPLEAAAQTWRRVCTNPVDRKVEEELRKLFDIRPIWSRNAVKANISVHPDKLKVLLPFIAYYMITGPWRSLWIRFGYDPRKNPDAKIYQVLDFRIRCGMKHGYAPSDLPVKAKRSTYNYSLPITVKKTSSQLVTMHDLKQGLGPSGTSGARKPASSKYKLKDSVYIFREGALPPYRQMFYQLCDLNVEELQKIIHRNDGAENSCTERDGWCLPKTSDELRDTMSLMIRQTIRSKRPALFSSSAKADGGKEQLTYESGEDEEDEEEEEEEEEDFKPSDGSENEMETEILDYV
UniProt P78417: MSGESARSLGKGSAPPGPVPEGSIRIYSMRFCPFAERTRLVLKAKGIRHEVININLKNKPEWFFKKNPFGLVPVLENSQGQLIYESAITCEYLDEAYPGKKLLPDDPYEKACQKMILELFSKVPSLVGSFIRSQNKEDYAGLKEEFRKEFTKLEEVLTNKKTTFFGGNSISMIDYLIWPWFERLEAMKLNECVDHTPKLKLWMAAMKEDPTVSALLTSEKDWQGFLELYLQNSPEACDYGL
UniProt Q96SL4: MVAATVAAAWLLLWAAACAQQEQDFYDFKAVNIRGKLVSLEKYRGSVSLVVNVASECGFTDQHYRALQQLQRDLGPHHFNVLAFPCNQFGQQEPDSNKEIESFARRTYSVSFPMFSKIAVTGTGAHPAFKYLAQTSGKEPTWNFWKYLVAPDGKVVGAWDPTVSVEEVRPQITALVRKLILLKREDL

compound: Cc1cc(ccc1-c1ccccc1)C(=O)N1CCCN(CC1)C(=O)CCl [compound 10]; experiment: probe-labelled cysteine peptide fold change vs DMSO (competition) (log2 fold change); higher = less target engagement (more negative = stronger competition); details: 10 µM; THP-1; incubation time: 4 h
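Also: competitive profiling in live THP-1 cells: cysteine peptides tagged with an iodoacetamide desthiobiotin (IA-DTB) probe, intensity after compound treatment relative to DMSO-treated cells.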

Target | probe-labelled cysteine peptide fold change
GSTM3_P21266_39_RYTCGEAPDYDR (UniProt P21266) | 0.0259
GSTM3_P21266_91_KHNMCGETEEEK (UniProt P21266) | 0.0537
GTPBP3_Q969Y2_188_QLDGELGHLCR (UniProt Q969Y2) | -0.0966
H6PD_O95479_393_HWAAAQSQCLPR (UniProt O95479) | -0.203
GTF2I_P78347_34_MVVTFLMSALESMCK (UniProt P78347) | -0.212
GSTCD_Q8NEC7_357_LLTTSTEQHPNLCEVPGVEEQSDPLFIGGPRPTMAK (UniProt Q8NEC7) | -0.172
GTF2I_P78347_903_KITINPGCVVVDGMPPGVSFK (UniProt P78347) | 0.0985
HARS_P12081_379_KVPCVGLSIGVER (UniProt P12081) | 0.0603
GRAMD1A_Q96CP6_456_RGPQAGGCVVDSEVLTQGIPYQDYFYTAHR (UniProt Q96CP6) | -0.1
GUK1_Q16774_98_ICVLDVDLQGVR (UniProt Q16774) | 0.271
GUSB_P08236_396_TSHYPYAEEVMQMCDR (UniProt P08236) | 0.365
GSR_P00390_134_VMWNTAVHSEFMHDHADYGFPSCEGK (UniProt P00390) | 0.0219
GRWD1_Q9BQ67_90_DHLGDNRTELPLTLYLCAGTQAESAQSNR (UniProt Q9BQ67) | 0.0823
GRK2_P25098_72_DFCLNHLEEARPLVEFYEEIKK (UniProt P25098) | 0.156
HAUS5_O94927_350_CCLWTELK (UniProt O94927) | -0.0042
GTF2I_P78347_46_SKAEVACIAVYETDVFVVGTER (UniProt P78347) | 0.101
HAUS6_Q7Z4H7_743_ILDHLEVSCNKPSTNK (UniProt Q7Z4H7) | -0.0162
HAUS5_O94927_446_CLEEEVR (UniProt O94927) | 0.0741
GPT2_Q8TD30_432_LTEDLFNQVPGIHCNPLQGAMYAFPR (UniProt Q8TD30) | -0.102
GRK4_P32298_204_GGFGEVCACQVR (UniProt P32298) | 0.193

Reprinted at random: 2 records from the list
Target | probe-labelled cysteine peptide fold change
GUK1_Q16774_98_ICVLDVDLQGVR (UniProt Q16774) | 0.271
GRWD1_Q9BQ67_90_DHLGDNRTELPLTLYLCAGTQAESAQSNR (UniProt Q9BQ67) | 0.0823

Further results.

Target | probe-labelled cysteine peptide fold change
GSTCD_Q8NEC7_571_EHMILCR (UniProt Q8NEC7) | 0.138
GTF3C5_Q9Y5Q8_242_RVCTNPVDR (UniProt Q9Y5Q8) | 0.0456
GSTO1_P78417_192_LNECVDHTPK (UniProt P78417) | 0.0376
GTF3A_Q92664_222_ETHKEEILCEVCR (UniProt Q92664) | 0.255
GSR_P00390_102_LGGTCVNVGCVPK (UniProt P00390) | -0.183
GSDMD_P57764_191_FSLPGATCLQGEGQGHLSQK (UniProt P57764) | -0.11
GRWD1_Q9BQ67_299_ACMLTTATAHDGDVNVISWSR (UniProt Q9BQ67) | -0.0232
GTSE1_Q9NYZ3_539_AVGSPLCVPAR (UniProt Q9NYZ3) | 0.32
GSDMD_P57764_38_VVQELDHGGEFIPVTSLQSSTGFQPYCLVVR (UniProt P57764) | 0.0178
GTF2I_P78347_215_SILSPGGSCGPIK (UniProt P78347) | -0.216
GPX7_Q96SL4_86_DLGPHHFNVLAFPCNQFGQQEPDSNK (UniProt Q96SL4) | -0.0107
HAUS8_Q9BT25_182_NLLIMCK (UniProt Q9BT25) | -0.126
H2AFY_O75367_276_FVIHCNSPVWGADKCEELLEK (UniProt O75367) | -0.198
GSTM3_P21266_91_HNMCGETEEEK (UniProt P21266) | 0.109
HAUS3_Q68CZ6_123_CQLMASVTSHK (UniProt Q68CZ6) | 0.0577
GSS_P48637_294_CPDIATQLAGTKK (UniProt P48637) | -0.134
GTF2B_Q00403_15_VTCPNHPDAILVEDYR (UniProt Q00403) | 0.0452
GTF3C1_Q12789_853_AGVRPSSSGSAWEACSEAPSK (UniProt Q12789) | -0.24
GTF2A2_P52657_68_FCDNVWTFVLNDVEFR (UniProt P52657) | 0.00888
